Data: US8889743B2 (priority 2007, dated 2014)
At least one compound was matched to its structure with a doubt left.

Experiments:
Format in all cases: cell-based
[1] = test system: live Ebola virus (Zaire strain); settings: 10 days
[2] = test system: Ebola virus pseudotyped VSV particles
[3] = test system: Ebola virus GP pseudotype
[4] = test system: Ebola env pseudotyped virus

Compound | infection of live Ebola Zaire virus (plaque numbers normalized to DMSO) [1] | infection of the VSV core EBOV pseudotyped virus [2] | entry of Ebola virus GP pseudotype (luciferase activity) [3] | binding of Ebola virus to the target cells (cell-bound luciferase activity) [4]
O=c1cc(N2CCOCC2)oc2c(-c3ccccc3)cccc12 [LY294002] | inhibition of infection | significantly impacted | inhibit Ebola virus entry | do not affect binding
COC[C@H]1OC(=O)c2coc3c2[C@@]1(C)C1=C(C3=O)[C@@H]2CCC(=O)[C@@]2(C)C[C@H]1OC(C)=O [wortmannin] |  |  | inhibits entry | 
